{"source": "PubChem BioAssay AID590", "about": "(National Center for Advancing Translational Sciences (NCATS), 2007)", "note": "The campaign covered roughly 59,000 compounds. About 6,500 (11%) were called active. Inconclusive means that the source gave no clear call. Such entries were picked first, then a sample of the others. Cut-off read from the data, not from the text of the source: active = max dye-equivalent concentration above about 10 nM; inconclusive = mostly about 1.1 nM to 9.6 nM; inactive = weaker than that. Some structures have more than one record in an assay (separate samples or runs), and their calls can disagree.", "data": [{"assay": "qHTS Assay for Spectroscopic Profiling in A350 Spectral Region", "settings": "Compound autofluorescence, 340/450 nm, Alexa 350 dye-equivalents; active compounds read high", "values": [{"smiles": "CCn1c(SCC(=O)Nc2nc(C)c(C)s2)nnc1-c1ccco1", "max dye-equivalent concentration": "inactive"}, {"smiles": "O=C(Nc1ccc2c(c1)OCO2)N1CCN(S(=O)(=O)c2ccc(Cl)cc2)CC1", "max dye-equivalent concentration": "inconclusive: 2.4 nM"}, {"smiles": "Cc1ccc(-c2cc(-c3ccccc3)c(C#N)c(N)n2)o1", "max dye-equivalent concentration": "active: 1800 nM"}, {"smiles": "COCCn1c(=O)c(-c2ccc(OC)cc2)nc2cnc(OC)nc21", "max dye-equivalent concentration": "active: 25 nM"}, {"smiles": "S=C(S)O[C@@H]1C[C@@H]2C[C@H]1[C@@H]1CCC[C@H]21", "max dye-equivalent concentration": "inactive"}, {"smiles": "Cc1ccc(CNC(=O)CCc2nc3ccccc3c(=O)[nH]2)cc1", "max dye-equivalent concentration": "inactive"}, {"smiles": "O=C(CSc1nnc(-c2ccco2)n1CC1CCCO1)NC1CCCC1", "note": "(stereo unspecified)", "max dye-equivalent concentration": "inactive"}, {"smiles": "COC(=O)CCSc1nccn1Cc1ccccc1", "max dye-equivalent concentration": "inconclusive: 1.2 nM"}, {"smiles": "C[C@H](NC(=O)Nc1ccc2c(c1)OCCO2)C(=O)O", "max dye-equivalent concentration": "inactive"}, {"smiles": "COC(=O)CSc1nc2cc(OC)ccc2cc1C#N", "max dye-equivalent concentration": "active: 20 nM"}, {"smiles": "COc1ccc([C@@H]2[C@H]3CN(C(C)=O)CC=C3C(C#N)=C(N)C2(C#N)C#N)c2ccccc12", "max dye-equivalent concentration": "inconclusive: 1.5 nM"}, {"smiles": "CCOc1ccc2[nH]c(=O)c(C(c3nnnn3Cc3ccco3)N3CCC(C)CC3)cc2c1", "note": "(stereo unspecified)", "max dye-equivalent concentration": "active: 110 nM"}, {"smiles": "COc1nc(N2CCCC2)nc(-n2cc(-c3ccccc3)nn2)n1", "max dye-equivalent concentration": "inactive"}, {"smiles": "O=C(CSc1nnc(-c2ccccc2)o1)c1ccc2c(c1)OCCO2", "max dye-equivalent concentration": "inconclusive: 1.4 nM"}, {"smiles": "O=C(CCC(=O)N1CCCC1)Nc1nnc(C2CCCCC2)s1", "max dye-equivalent concentration": "inconclusive: 3.4 nM"}, {"smiles": "COCCCNC(=O)c1ccc2c(c1)OCO2", "max dye-equivalent concentration": "inactive"}, {"smiles": "COc1cc2cc(CN(Cc3cccnc3)C(=O)NCc3ccccc3)c(=O)[nH]c2cc1OC", "max dye-equivalent concentration": "active: 220 nM"}, {"smiles": "O=C(O)C1CC=CCC1C(=O)Nc1ccccc1Cl", "note": "(stereo unspecified)", "max dye-equivalent concentration": "inconclusive: 8.4 nM"}, {"smiles": "CC(NC(=O)Nc1ccc(F)cc1F)c1ccncc1", "note": "(stereo unspecified)", "max dye-equivalent concentration": "active: 16 nM"}, {"smiles": "COCCn1c(=O)c(-c2cccc(F)c2)nc2cncnc21", "max dye-equivalent concentration": "inconclusive: 2.8 nM"}, {"smiles": "CCCOc1ccc(N2C(=O)CC(N3CCC(c4nncn4CC)CC3)C2=O)cc1", "note": "(stereo unspecified)", "max dye-equivalent concentration": "inactive"}, {"smiles": "O=c1[nH]c(SCC2CCCCO2)nc2ccccc12", "note": "(stereo unspecified)", "max dye-equivalent concentration": "inconclusive: 2.2 nM"}, {"smiles": "Cc1ccccc1N1CCN(S(=O)(=O)c2ccc3oc(=O)ccc3c2)CC1", "max dye-equivalent concentration": "inactive"}, {"smiles": "N#Cc1ccsc1NC(=O)COC(=O)CCCSc1nc2ccccc2s1", "max dye-equivalent concentration": "inconclusive: 3.1 nM"}, {"smiles": "COC(=O)c1cnn2c3c(c(C)nc12)CCCC3", "max dye-equivalent concentration": "inconclusive: 4.3 nM"}, {"smiles": "CCOC(=O)CCCCC(=O)NC(CO)C(=O)NC", "note": "(stereo unspecified)", "max dye-equivalent concentration": "inconclusive: 3.6 nM"}, {"smiles": "CCCOc1ccc(CN(CCO)CCO)cc1C(=O)OC", "max dye-equivalent concentration": "inconclusive: 2.6 nM"}, {"smiles": "Oc1ccccc1CNn1cnnc1", "max dye-equivalent concentration": "inactive"}, {"smiles": "N#CCCn1c(=O)c(-c2ccc(F)cc2)nc2cnc(Oc3cccc(Cl)c3)nc21", "max dye-equivalent concentration": "active: 17 nM"}, {"smiles": "c1ccc2c(c1)Cn1nnnc1-2", "max dye-equivalent concentration": "inactive"}, {"smiles": "CC1(C)CC(=O)C2=C(C1)N(Cc1ccco1)C(=O)C2(O)C(F)(F)F", "note": "(stereo unspecified)", "max dye-equivalent concentration": "inactive"}, {"smiles": "CN1CCc2cc3c(c4c2C1CC41CCC(=NO)CC1)OCO3", "note": "(stereo unspecified)", "max dye-equivalent concentration": "active: 490 nM"}, {"smiles": "Fc1cc2nccnc2cc1N1CCSCC1", "max dye-equivalent concentration": "inconclusive: 7.3 nM"}, {"smiles": "COC(=O)C1=C(CSCc2ccco2)NC(=O)NC1c1cc(C)ccc1C", "note": "(stereo unspecified)", "max dye-equivalent concentration": "inconclusive: 3.5 nM"}, {"smiles": "Oc1ccccc1-c1cc(-c2ccccc2Cl)[nH]n1", "max dye-equivalent concentration": "inactive"}, {"smiles": "Cn1c(CNc2ccccn2)c(C#N)c2ccccc21", "max dye-equivalent concentration": "inconclusive: 1.5 nM"}, {"smiles": "Cc1ccc(-c2cc(-c3ccccc3Cl)c(C#N)c(N)n2)o1", "max dye-equivalent concentration": "active: 1800 nM"}, {"smiles": "Clc1ccccc1OCc1nnc(-c2ccccc2Br)o1", "max dye-equivalent concentration": "inconclusive: 1.6 nM"}, {"smiles": "CCOc1cc(-c2nc(-c3ccccc3OC)no2)cc(OCC)c1OCC", "max dye-equivalent concentration": "inactive"}, {"smiles": "COc1ccc(-c2nc(NC(=O)c3cc(C(C)(C)C)nn3C)sc2C)cc1", "max dye-equivalent concentration": "inconclusive: 3.6 nM"}, {"smiles": "O=C1N/C(=C\\c2ccccc2)c2ccccc21", "max dye-equivalent concentration": "inconclusive: 5.4 nM"}, {"smiles": "COCCNC(=O)c1snc2ccc(Cl)cc12", "max dye-equivalent concentration": "active: 46 nM"}, {"smiles": "COc1ccc([C@@H](Nc2ncccn2)c2cc3c(cc2O)OCO3)cc1", "max dye-equivalent concentration": "inactive"}, {"smiles": "CN1CCN(c2nc(-c3ccccc3C(F)(F)F)nc3ccccc23)CC1", "max dye-equivalent concentration": "inactive"}, {"smiles": "CN(C(=O)c1cnc(N2CCN(c3ncccn3)CC2)c2ccccc12)c1ccc(Cl)cc1", "max dye-equivalent concentration": "active: 11 nM"}, {"smiles": "CCOC(=O)c1c(NC(=O)c2nc3n(n2)C(C(F)F)CC(C)N3)sc2c1CCCC2", "note": "(stereo unspecified)", "max dye-equivalent concentration": "active: 67 nM"}, {"smiles": "Cc1cc(NC(=O)c2cc(-c3ccc4c(c3)OCO4)on2)n(-c2ccccc2)n1", "max dye-equivalent concentration": "active: 13 nM"}, {"smiles": "COc1ccccc1N1CCN(C(=O)Cn2nnc(-c3cccs3)n2)CC1", "max dye-equivalent concentration": "inactive"}, {"smiles": "Cc1cc(C)n(-c2nc3ccccc3nc2N2CCN(C(=O)c3ccc(Cl)cc3)CC2)n1", "max dye-equivalent concentration": "active: 20 nM"}, {"smiles": "N#CCSc1nc2ccc(N3CCCCC3)cc2c(=O)n1Cc1ccccc1", "max dye-equivalent concentration": "inconclusive: 4.4 nM"}, {"smiles": "Cc1nc2c(cnn2-c2ccc(Cl)cc2)c(=O)n1-c1ccc2c(c1)OCCO2", "max dye-equivalent concentration": "inactive"}, {"smiles": "Cn1c(/N=C/c2c[nH]c3ccccc23)nc2ccccc21", "max dye-equivalent concentration": "inconclusive: 3.8 nM"}, {"smiles": "CCn1c(=O)c(C(=O)NCCN2CCCCC2)c(O)c2ccccc21", "max dye-equivalent concentration": "inconclusive: 1.2 nM"}, {"smiles": "CCOC(=O)COn1c(=O)c(-c2ccco2)[n+]([O-])c2ccccc21", "max dye-equivalent concentration": "active: 25 nM"}, {"smiles": "c1ccc2c(c1)Cn1nc(Cc3nc4c(s3)CCCC4)nc1-2", "max dye-equivalent concentration": "inconclusive: 2.3 nM"}, {"smiles": "CN1[C@@H](CC(=O)c2ccccc2)CCC[C@H]1C[C@H](O)c1ccccc1", "max dye-equivalent concentration": "inconclusive: 5.1 nM"}, {"smiles": "COc1ccc(F)cc1S(=O)(=O)Nc1ccc(C)cc1", "max dye-equivalent concentration": "inconclusive: 1.1 nM"}, {"smiles": "O=C(O)CN(c1ccc2c(c1)OCCO2)S(=O)(=O)c1ccccc1", "max dye-equivalent concentration": "active: 15 nM"}, {"smiles": "COc1ccc(N2CCN(C(=O)CSc3nnc(-c4cccnc4)n3-c3ccccc3)CC2)cc1", "max dye-equivalent concentration": "inconclusive: 1.7 nM"}, {"smiles": "N#Cc1cccc(-c2nc(Nc3ccccc3)c3ccccc3n2)c1", "max dye-equivalent concentration": "inconclusive: 1.5 nM"}, {"smiles": "O=C(Nc1ccc2c(c1)C(=O)N(C1CCCCC1)C2=O)C1CCCO1", "note": "(stereo unspecified)", "max dye-equivalent concentration": "active: 190 nM"}, {"smiles": "COc1c(F)c(F)c(-c2csc(N)n2)c(F)c1F", "max dye-equivalent concentration": "active: 15 nM"}, {"smiles": "CCCn1c(SCC(=O)Nc2nc(C)cs2)nnc1-c1cccnc1", "max dye-equivalent concentration": "inconclusive: 1.9 nM"}, {"smiles": "CCCCc1c(C)c2ccc(OCC(C)=O)cc2oc1=O", "max dye-equivalent concentration": "active: 67 nM"}, {"smiles": "Cc1cc(C)c(C#N)c(N2CCCC2)n1", "max dye-equivalent concentration": "active: 840 nM"}, {"smiles": "CCCC(=O)Nc1ccc2c(c1)nc(CN1CCCCC1)n2C", "max dye-equivalent concentration": "inconclusive: 4.5 nM"}, {"smiles": "CC(=O)Nc1ccccc1C(=O)N1CCc2ccccc21", "max dye-equivalent concentration": "inactive"}, {"smiles": "N[C@@H](CO)C(=O)NNCc1ccc(O)c(O)c1O", "max dye-equivalent concentration": "active: 62 nM", "outcome": "inactive"}, {"smiles": "CCOc1ccccc1NC(=O)Cn1c(C)cc(COC)c(C#N)c1=O", "max dye-equivalent concentration": "inconclusive: 4.1 nM"}, {"smiles": "CCC(Oc1ccccc1)C(=O)N1CCN(c2ccccn2)CC1", "note": "(stereo unspecified)", "max dye-equivalent concentration": "inactive"}, {"smiles": "CCCNC(=O)CCNC(=O)c1ccc(C(C)(C)C)cc1", "max dye-equivalent concentration": "inconclusive: 1.3 nM"}, {"smiles": "O=C(NCCN1CCOCC1)C1CCN(c2nc3ccccc3o2)CC1", "max dye-equivalent concentration": "inconclusive: 2.5 nM"}, {"smiles": "CCN(CCCNC(=O)c1c(C)cc(=O)oc1C)c1cccc(C)c1", "max dye-equivalent concentration": "inconclusive: 1.4 nM"}, {"smiles": "COc1ccc(NC(=O)N2CCN(S(C)(=O)=O)CC2)cc1OC", "max dye-equivalent concentration": "inconclusive: 1.1 nM"}, {"smiles": "Cc1nc(-c2cccc(S(=O)(=O)N3CCOCC3)c2)cs1", "max dye-equivalent concentration": "active: 300 nM"}, {"smiles": "CC(C)c1nc(NCCN2CCOCC2)c(C#N)c2c1COC(C)(C)C2", "max dye-equivalent concentration": "inconclusive: 5.7 nM"}, {"smiles": "O=C(CC1CC2CCC1C2)NCc1cccs1", "note": "(stereo unspecified)", "max dye-equivalent concentration": "inconclusive: 1.9 nM"}, {"smiles": "CC(C)n1c(SCC(=O)N2CCCc3ccccc32)nc2c1c(=O)n(C)c(=O)n2C", "max dye-equivalent concentration": "inactive"}, {"smiles": "CCOc1nc(OCC)nc(-n2cc(-c3ccccc3)nn2)n1", "max dye-equivalent concentration": "inactive"}, {"smiles": "CCOC(=O)Cc1csc(NC(=O)c2ccco2)n1", "max dye-equivalent concentration": "inactive"}, {"smiles": "Cc1ccc(NC(=O)C2CCN(S(=O)(=O)c3cccc4nonc34)CC2)nc1", "max dye-equivalent concentration": "inactive"}, {"smiles": "CCCC(C)C1C(C#N)=C(N)Oc2cc(C)oc(=O)c21", "note": "(stereo unspecified)", "max dye-equivalent concentration": "inconclusive: 1.3 nM"}, {"smiles": "OC(COc1ccccc1)CSc1ncn[nH]1", "note": "(stereo unspecified)", "max dye-equivalent concentration": "active: 76 nM"}, {"smiles": "Cc1cc(C)c(S(=O)(=O)N(CC(=O)N2CCOCC2)C2CCCCC2)c(C)c1", "max dye-equivalent concentration": "active: 220 nM"}, {"smiles": "Cc1cc2oc(=O)cc(CN3CCN(Cc4ccc5c(c4)OCO5)CC3)c2cc1C", "max dye-equivalent concentration": "inconclusive: 2.2 nM"}, {"smiles": "CC(C(=O)NCC1(c2ccccc2)CCCC1)N1CCOCC1", "note": "(stereo unspecified)", "max dye-equivalent concentration": "inconclusive: 1.6 nM"}, {"smiles": "CC(=O)C1=C(NC(=O)c2ccccc2F)C[C@@H]2[C@H]1C2(C)C", "max dye-equivalent concentration": "active: 18 nM"}, {"smiles": "O=S(=O)(NCC1CC1)c1cccc(S(=O)(=O)N2CCCC2)c1", "max dye-equivalent concentration": "inconclusive: 2.4 nM"}, {"smiles": "CC(C)(C)NC(=O)C(c1cccs1)N(CC1CCCO1)C(=O)Cn1nnc(-c2cccs2)n1", "note": "(stereo unspecified)", "max dye-equivalent concentration": "inconclusive: 9.4 nM"}, {"smiles": "Cc1nn(-c2ccccc2)c2c1P(=O)(O)/C(=C1\\N(C)c3ccccc3C1(C)C)C=N2", "max dye-equivalent concentration": "inconclusive: 1.1 nM"}, {"smiles": "Cc1nc2ccccc2c(=O)n1NS(C)(=O)=O", "max dye-equivalent concentration": "inactive"}, {"smiles": "Nc1c(C(=O)c2ccc(F)cc2)oc2ccccc12", "max dye-equivalent concentration": "inconclusive: 1.3 nM"}, {"smiles": "c1ccc(Nc2nc3ccccc3[nH]2)nc1", "max dye-equivalent concentration": "inconclusive: 2.4 nM"}, {"smiles": "O=C(CN(C(=O)CNS(=O)(=O)c1ccccc1)c1ccc2c(c1)OCCO2)NCc1ccco1", "max dye-equivalent concentration": "inactive"}, {"smiles": "O=C(Nc1cccc(C(F)(F)F)c1)c1cc(S(=O)(=O)N2CCCCC2)ccc1N1CCOCC1", "max dye-equivalent concentration": "inconclusive: 3 nM"}]}]}
